Results reported in PMC7055300, “Theileria parasites subvert E2F signaling to stimulate leukocyte proliferation” (Scientific Reports, 2020).
No constants are given. Whether binding was seen depends on the method and setting. Binding calls can cover weak binding; strength is not graded here. For some assays here: In cells and extracts the contact can be indirect.

Sequences of proteins named here, by UniProt entry; tags and fusion partners are left off. A change or cut given only in a name is not applied to a line headed by its entry.
UniProt Q08E68: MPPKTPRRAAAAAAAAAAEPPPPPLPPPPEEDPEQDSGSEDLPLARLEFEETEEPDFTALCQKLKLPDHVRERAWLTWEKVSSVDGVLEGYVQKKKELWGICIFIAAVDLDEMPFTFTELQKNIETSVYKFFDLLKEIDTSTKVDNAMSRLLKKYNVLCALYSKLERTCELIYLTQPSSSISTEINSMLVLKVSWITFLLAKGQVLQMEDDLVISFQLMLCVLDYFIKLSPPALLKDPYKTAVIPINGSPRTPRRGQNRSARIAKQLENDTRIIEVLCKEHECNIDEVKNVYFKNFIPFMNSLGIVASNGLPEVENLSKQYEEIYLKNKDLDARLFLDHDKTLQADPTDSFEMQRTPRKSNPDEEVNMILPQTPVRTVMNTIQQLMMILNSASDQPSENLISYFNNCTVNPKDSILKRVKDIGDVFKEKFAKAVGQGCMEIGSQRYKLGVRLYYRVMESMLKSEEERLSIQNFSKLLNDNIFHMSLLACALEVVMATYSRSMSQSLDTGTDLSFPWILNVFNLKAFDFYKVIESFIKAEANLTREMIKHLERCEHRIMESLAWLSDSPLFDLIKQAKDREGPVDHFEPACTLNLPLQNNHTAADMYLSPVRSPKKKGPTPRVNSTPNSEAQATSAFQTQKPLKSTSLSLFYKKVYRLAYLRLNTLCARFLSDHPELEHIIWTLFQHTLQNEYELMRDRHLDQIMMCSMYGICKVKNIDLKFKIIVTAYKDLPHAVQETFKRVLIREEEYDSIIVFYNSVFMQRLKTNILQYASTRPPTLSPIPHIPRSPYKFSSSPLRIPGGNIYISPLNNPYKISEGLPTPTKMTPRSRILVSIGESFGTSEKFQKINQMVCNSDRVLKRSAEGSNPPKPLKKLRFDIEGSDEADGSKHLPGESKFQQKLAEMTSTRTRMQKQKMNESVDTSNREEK
UniProt P06400: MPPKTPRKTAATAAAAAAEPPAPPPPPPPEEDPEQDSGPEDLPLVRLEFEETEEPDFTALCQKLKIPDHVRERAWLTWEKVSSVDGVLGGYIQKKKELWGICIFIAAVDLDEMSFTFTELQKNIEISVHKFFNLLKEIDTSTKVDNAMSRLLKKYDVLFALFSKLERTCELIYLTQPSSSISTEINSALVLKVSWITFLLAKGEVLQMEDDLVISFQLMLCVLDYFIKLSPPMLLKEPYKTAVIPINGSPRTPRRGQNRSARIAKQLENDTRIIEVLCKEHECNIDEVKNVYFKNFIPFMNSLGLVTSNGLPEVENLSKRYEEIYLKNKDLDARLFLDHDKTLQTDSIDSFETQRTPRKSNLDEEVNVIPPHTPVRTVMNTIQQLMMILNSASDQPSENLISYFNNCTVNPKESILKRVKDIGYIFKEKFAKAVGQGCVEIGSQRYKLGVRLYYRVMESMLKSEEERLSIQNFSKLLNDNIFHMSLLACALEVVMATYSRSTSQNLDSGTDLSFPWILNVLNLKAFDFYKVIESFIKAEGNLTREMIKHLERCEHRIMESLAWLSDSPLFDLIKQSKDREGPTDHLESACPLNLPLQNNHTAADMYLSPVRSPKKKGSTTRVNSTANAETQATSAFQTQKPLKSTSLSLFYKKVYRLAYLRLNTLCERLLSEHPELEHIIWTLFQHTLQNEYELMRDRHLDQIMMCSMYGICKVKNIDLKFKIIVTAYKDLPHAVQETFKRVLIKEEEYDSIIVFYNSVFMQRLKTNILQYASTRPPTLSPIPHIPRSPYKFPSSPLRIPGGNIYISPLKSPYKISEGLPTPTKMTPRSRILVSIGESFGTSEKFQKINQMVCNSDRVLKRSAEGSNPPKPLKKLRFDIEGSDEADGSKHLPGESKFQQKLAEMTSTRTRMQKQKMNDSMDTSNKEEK
UniProt Q32PJ8: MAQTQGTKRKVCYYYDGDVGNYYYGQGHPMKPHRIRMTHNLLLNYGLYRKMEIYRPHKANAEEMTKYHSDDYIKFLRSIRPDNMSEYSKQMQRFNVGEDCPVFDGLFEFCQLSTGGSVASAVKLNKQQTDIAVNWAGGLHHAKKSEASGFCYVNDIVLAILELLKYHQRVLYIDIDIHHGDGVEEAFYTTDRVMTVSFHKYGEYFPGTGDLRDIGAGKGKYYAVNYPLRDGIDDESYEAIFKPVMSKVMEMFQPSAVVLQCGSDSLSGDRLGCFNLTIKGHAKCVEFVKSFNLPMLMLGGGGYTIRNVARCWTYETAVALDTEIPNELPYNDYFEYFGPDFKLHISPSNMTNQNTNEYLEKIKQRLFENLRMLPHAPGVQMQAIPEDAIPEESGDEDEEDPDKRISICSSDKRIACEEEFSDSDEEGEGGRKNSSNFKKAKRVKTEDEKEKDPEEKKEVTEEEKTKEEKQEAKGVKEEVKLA
UniProt Q13547: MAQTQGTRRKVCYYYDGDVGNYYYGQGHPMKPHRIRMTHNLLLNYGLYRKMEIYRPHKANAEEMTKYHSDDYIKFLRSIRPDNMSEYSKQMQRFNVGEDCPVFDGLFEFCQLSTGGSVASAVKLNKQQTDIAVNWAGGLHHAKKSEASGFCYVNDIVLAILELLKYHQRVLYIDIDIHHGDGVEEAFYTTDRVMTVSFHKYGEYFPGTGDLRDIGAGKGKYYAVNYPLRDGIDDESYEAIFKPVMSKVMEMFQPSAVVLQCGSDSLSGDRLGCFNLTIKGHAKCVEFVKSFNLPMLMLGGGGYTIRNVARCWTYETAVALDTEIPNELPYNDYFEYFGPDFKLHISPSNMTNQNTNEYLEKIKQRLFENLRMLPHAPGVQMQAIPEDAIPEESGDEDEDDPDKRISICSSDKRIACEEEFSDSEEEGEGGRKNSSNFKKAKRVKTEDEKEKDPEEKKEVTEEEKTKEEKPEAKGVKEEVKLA

What was measured:
[1] = target: RB, endogenous in bovine leukocyte lines (bovine (endogenous in BL20 and TBL20)) (UniProt Q08E68); test: co-IP; RB immunoprecipitates from uninfected BL20 and T. annulata-infected TBL20 cells, blotted for HDAC1; endogenous proteins
[2] = target: human Retinoblastoma-1 (RB) pocket domain (human) (UniProt P06400); test: SPR; human RB immobilised on a CM5 chip by amine coupling (about 2000 RU); analytes 0–25 µM in HBS-EP (10 mM Hepes, 150 mM NaCl, 3 mM EDTA, 0.05% P20, pH 7.4), 30 µl per minute, 25 °C, Biacore T200; data fitted to the steady state affinity; both purified

“HDAC1, endogenous in bovine leukocyte lines (from UniProt Q32PJ8 1-482)” was tested. Which binding [1] did it give?
The binding was “binds”.

With “full-length HDAC1, purified, recombinant (from UniProt Q13547 1-482)” as the substance, how does the binding [2] read?
Its binding is “binds”.
